Earlier results on one compound are cited in PMC4937655 (Journal of Drug Assessment, 2013).

The conditions of the series: healthy volunteers; cited from earlier work.

Each structure is given as a SMILES string.

With `CC(C)c1c(C(=O)Nc2ccccc2)c(-c2ccccc2)c(-c2ccc(F)cc2)n1CC[C@@H](O)C[C@@H](O)CC(=O)O` [atorvastatin], the “Increase in AUC with ticagrelor” value was 36% and the “Increase in mean Cmax with ticagrelor” value was 23%.
